Laboratory results as given in paper PMC11673774.
No constants are given. Whether binding was seen depends on the method and setting. Binding seen in cells or lysates may run through a third protein. Some entries that bind do so weakly or less than the wild type.

Protein sequences, listed by entry. Tags and fused reporters are not part of them. Residues count along the entry.
UniProt O35516, residues 26-2473: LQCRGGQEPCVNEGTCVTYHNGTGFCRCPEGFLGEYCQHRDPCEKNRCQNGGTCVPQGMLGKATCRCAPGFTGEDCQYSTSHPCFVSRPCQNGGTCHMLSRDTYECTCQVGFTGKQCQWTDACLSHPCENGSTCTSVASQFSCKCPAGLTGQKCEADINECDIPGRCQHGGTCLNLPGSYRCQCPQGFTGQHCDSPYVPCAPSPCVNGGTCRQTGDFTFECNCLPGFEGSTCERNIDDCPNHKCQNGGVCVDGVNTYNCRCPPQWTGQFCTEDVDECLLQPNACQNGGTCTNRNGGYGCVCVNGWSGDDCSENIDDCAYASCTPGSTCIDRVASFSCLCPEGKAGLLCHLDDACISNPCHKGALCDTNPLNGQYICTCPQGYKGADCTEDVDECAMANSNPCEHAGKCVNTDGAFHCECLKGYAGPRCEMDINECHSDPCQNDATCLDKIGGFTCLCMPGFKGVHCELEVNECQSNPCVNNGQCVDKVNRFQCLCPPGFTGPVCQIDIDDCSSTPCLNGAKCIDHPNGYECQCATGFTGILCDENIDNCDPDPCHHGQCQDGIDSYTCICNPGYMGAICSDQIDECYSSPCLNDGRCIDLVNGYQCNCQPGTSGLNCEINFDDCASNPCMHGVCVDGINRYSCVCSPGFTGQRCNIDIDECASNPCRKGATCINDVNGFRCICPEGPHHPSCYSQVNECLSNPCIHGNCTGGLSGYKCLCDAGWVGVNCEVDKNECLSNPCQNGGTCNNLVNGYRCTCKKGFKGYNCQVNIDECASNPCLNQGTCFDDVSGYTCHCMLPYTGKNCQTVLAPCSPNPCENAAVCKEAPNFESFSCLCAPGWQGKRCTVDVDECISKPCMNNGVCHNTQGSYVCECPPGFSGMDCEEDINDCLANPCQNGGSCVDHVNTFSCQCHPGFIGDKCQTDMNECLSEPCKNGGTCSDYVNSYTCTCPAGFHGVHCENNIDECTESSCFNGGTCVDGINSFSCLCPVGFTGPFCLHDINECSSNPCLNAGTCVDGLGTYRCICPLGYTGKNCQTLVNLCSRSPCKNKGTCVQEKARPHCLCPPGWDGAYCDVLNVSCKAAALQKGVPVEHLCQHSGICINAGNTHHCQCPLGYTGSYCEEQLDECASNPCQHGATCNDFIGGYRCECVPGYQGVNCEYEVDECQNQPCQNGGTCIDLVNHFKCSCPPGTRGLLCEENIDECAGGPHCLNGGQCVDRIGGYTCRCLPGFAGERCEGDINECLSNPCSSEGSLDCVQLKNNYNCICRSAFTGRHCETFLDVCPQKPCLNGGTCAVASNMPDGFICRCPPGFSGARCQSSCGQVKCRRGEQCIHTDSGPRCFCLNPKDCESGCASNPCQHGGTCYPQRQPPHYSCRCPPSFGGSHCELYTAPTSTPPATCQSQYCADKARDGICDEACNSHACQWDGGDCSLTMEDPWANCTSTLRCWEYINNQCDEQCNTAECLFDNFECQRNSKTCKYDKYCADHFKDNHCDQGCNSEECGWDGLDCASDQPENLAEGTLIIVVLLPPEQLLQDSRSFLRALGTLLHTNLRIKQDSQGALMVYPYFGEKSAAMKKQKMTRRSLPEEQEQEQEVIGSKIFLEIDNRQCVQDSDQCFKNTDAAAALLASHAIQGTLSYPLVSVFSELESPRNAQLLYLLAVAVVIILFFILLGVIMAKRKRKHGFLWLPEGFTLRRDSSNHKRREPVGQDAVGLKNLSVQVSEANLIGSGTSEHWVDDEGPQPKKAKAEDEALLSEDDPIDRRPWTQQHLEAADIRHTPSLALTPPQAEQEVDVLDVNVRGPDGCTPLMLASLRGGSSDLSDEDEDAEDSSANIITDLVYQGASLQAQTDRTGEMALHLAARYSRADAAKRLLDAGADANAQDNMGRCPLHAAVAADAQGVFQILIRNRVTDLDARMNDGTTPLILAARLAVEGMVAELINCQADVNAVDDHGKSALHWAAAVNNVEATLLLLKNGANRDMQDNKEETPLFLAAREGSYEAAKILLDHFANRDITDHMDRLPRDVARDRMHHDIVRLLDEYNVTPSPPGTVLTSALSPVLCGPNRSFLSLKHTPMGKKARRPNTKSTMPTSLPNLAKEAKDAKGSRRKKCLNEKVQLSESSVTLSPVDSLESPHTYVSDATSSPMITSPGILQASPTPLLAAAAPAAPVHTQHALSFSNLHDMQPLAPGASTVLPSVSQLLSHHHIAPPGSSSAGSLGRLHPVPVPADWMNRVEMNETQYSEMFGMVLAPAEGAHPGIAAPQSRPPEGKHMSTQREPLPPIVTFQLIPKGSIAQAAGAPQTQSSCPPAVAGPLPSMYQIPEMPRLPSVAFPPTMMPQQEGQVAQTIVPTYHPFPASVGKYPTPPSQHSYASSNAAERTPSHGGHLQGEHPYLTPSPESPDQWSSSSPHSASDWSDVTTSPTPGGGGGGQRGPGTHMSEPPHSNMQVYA
UniProt Q01705, residues 19-2531: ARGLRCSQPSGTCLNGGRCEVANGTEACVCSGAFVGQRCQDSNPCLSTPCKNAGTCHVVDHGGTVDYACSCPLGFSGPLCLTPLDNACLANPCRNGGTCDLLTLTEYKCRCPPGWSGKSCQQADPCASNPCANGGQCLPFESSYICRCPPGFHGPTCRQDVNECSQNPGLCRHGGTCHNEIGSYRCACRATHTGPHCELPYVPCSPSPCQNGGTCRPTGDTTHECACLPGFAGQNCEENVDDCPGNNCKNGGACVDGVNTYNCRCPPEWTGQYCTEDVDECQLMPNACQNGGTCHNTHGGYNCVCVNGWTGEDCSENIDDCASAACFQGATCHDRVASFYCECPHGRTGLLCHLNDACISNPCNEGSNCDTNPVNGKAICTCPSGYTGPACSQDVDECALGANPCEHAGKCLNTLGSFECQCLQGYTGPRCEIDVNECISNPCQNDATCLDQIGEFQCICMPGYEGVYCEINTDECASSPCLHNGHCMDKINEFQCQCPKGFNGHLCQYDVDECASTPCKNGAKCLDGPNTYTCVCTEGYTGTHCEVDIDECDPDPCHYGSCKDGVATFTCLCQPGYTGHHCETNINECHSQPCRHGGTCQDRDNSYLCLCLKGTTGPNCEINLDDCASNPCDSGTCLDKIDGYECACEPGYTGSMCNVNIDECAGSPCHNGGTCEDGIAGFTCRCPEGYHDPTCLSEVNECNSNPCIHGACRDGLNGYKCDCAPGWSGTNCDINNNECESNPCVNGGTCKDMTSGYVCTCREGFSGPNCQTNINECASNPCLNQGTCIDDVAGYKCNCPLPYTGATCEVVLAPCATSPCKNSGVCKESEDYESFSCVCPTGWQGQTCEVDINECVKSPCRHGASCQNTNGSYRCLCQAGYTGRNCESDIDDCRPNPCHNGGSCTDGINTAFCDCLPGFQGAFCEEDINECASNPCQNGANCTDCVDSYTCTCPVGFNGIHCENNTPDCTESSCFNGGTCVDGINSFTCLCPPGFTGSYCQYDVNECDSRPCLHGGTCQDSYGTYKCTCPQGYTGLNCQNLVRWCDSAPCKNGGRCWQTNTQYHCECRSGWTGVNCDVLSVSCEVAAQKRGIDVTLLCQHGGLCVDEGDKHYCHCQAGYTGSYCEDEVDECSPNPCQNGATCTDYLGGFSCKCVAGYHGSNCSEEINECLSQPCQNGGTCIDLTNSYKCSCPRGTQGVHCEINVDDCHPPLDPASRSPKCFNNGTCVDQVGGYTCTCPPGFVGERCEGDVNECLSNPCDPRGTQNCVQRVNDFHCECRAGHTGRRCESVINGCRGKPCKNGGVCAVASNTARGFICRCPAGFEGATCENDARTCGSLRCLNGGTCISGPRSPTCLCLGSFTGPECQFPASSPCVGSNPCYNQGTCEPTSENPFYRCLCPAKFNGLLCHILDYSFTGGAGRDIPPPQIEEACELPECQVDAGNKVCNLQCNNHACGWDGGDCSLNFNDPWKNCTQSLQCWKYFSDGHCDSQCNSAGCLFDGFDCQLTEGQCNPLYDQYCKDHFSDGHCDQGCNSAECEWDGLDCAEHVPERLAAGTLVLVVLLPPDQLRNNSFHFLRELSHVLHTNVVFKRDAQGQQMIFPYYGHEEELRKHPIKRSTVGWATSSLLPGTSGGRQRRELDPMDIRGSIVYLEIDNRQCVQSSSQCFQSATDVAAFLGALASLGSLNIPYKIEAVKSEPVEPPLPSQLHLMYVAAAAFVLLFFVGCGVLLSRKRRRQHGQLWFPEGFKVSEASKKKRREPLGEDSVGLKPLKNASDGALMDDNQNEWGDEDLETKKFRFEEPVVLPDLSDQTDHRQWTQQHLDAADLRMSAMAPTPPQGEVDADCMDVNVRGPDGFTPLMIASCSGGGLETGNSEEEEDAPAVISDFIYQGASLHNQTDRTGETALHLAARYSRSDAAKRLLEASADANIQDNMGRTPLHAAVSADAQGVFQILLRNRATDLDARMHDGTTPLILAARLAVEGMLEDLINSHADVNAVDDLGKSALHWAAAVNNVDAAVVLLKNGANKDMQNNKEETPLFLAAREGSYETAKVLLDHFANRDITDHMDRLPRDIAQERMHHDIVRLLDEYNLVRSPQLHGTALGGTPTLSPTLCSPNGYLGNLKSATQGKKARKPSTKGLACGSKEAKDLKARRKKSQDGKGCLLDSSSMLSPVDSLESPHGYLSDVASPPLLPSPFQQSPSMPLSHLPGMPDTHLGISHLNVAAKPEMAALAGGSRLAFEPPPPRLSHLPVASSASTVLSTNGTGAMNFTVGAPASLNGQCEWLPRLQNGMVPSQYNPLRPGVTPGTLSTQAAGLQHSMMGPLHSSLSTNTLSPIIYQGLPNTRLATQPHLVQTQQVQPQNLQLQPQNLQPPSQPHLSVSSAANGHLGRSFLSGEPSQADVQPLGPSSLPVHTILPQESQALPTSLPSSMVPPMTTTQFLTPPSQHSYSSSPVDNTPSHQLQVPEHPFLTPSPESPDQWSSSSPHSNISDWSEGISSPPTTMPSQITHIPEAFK

T1: Platelet Endothelial Aggregation Receptor 1 (PEAR1) (mouse (endogenous in C2C12)) (UniProt Q8VIK5)
T1 sequence: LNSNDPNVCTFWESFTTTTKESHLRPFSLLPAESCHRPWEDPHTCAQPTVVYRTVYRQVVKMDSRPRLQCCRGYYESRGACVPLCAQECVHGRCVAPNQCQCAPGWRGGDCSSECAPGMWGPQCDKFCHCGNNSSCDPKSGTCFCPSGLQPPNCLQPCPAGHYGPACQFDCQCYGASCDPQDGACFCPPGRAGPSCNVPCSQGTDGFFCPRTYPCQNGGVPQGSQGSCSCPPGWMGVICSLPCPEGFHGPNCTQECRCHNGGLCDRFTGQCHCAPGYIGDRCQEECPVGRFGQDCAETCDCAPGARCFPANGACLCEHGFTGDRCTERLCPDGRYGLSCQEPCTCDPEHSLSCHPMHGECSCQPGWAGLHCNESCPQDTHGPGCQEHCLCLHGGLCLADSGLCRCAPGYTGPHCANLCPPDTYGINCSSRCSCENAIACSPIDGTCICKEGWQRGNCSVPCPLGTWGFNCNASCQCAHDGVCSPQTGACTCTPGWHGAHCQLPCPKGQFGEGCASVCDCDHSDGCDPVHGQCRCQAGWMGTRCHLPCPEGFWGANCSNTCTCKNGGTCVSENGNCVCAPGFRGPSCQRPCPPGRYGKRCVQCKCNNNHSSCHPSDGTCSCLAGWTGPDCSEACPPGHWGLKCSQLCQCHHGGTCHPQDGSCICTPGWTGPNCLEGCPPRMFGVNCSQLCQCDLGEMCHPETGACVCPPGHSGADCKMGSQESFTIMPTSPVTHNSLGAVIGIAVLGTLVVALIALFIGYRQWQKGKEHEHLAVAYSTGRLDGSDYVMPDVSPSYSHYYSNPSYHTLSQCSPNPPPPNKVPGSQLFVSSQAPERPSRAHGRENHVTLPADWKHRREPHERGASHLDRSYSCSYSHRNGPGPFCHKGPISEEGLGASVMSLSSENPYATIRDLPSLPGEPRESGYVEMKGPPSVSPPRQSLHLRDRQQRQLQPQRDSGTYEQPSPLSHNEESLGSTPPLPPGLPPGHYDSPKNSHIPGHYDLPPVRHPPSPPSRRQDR


Assays:
Experiment in all cases: co-IP; antibody (anti-PEAR1, anti-Notch1 or anti-Notch2) on magnetic beads, 2 h at 4 °C, then incubated with extracted total cellular protein of C2C12 cells for 2 h at 4 °C; Western blotting; rabbit IgG as negative control
[1] = target: T1, Platelet Endothelial Aggregation Receptor 1 (PEAR1) (mouse (endogenous in C2C12))
[2] = target: Notch2 (mouse (endogenous in C2C12)) (UniProt O35516)
[3] = target: Notch1 (mouse (endogenous in C2C12)) (UniProt Q01705)

binding [1] | binding [2] | binding [3] | Molecule
binds |  |  | Notch2 (from UniProt O35516 26-2473) (receptor)
binds |  |  | Notch1 (from UniProt Q01705 19-2531) (receptor)
 | binds | binds | Platelet Endothelial Aggregation Receptor 1 (PEAR1) (protein, UniProt Q8VIK5 19-1034) LNSNDPNVCTFWESFTTTTKESHLRPFSLLPAESCHRPWEDPHTCAQPTVVYRTVYRQVVKMDSRPRLQCCRGYYESRGACVPLCAQECVHGRCVAPNQCQCAPGWRGGDCSSECAPGMWGPQCDKFCHCGNNSSCDPKSGTCFCPSGLQPPNCLQPCPAGHYGPACQFDCQCYGASCDPQDGACFCPPGRAGPSCNVPCSQGTDGFFCPRTYPCQNGGVPQGSQGSCSCPPGWMGVICSLPCPEGFHGPNCTQECRCHNGGLCDRFTGQCHCAPGYIGDRCQEECPVGRFGQDCAETCDCAPGARCFPANGACLCEHGFTGDRCTERLCPDGRYGLSCQEPCTCDPEHSLSCHPMHGECSCQPGWAGLHCNESCPQDTHGPGCQEHCLCLHGGLCLADSGLCRCAPGYTGPHCANLCPPDTYGINCSSRCSCENAIACSPIDGTCICKEGWQRGNCSVPCPLGTWGFNCNASCQCAHDGVCSPQTGACTCTPGWHGAHCQLPCPKGQFGEGCASVCDCDHSDGCDPVHGQCRCQAGWMGTRCHLPCPEGFWGANCSNTCTCKNGGTCVSENGNCVCAPGFRGPSCQRPCPPGRYGKRCVQCKCNNNHSSCHPSDGTCSCLAGWTGPDCSEACPPGHWGLKCSQLCQCHHGGTCHPQDGSCICTPGWTGPNCLEGCPPRMFGVNCSQLCQCDLGEMCHPETGACVCPPGHSGADCKMGSQESFTIMPTSPVTHNSLGAVIGIAVLGTLVVALIALFIGYRQWQKGKEHEHLAVAYSTGRLDGSDYVMPDVSPSYSHYYSNPSYHTLSQCSPNPPPPNKVPGSQLFVSSQAPERPSRAHGRENHVTLPADWKHRREPHERGASHLDRSYSCSYSHRNGPGPFCHKGPISEEGLGASVMSLSSENPYATIRDLPSLPGEPRESGYVEMKGPPSVSPPRQSLHLRDRQQRQLQPQRDSGTYEQPSPLSHNEESLGSTPPLPPGLPPGHYDSPKNSHIPGHYDLPPVRHPPSPPSRRQDR
